PubChem BioAssay AID1224830 – NIAID | 2016
Aim: 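Host factors that control LPS-induced TNF expression in human macrophages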 (primary screen). Cell system: human THP-1 monocytic leukaemia cells, TNF dual-luciferase reporter clone, PMA-differentiated to macrophage-like cells. Knock-down reagent: siRNA pool against human genes, 50 nM. Duration: LPS for 4 h, given about 3 days after siRNA transfection. Challenge: bacterial LPS (TLR4 ligand), 10 ng/ml. Read-out: 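TNF firefly reporter luminescence divided by renilla, normalised to the plate median, then turned into a robust z-score for each replicate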. Scale: TNF reporter robust z-score: higher = stronger TNF reporter response to LPS. Active means: 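Each well counts as active if its z-score is over 2.8 or under -1.5; controls are left without a call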.
The deposit covers about 18,000 reagents; below is a random part of them. About 2,900 of all reagents (16%) were called active. 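Calls are made per well; low scores hint the gene aids the LPS response, high scores that it dampens it.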 Repeated entries: four replicate wells of each siRNA pool. No sequences are given here.

gene	TNF reporter robust z-score	call
PODXL	-0.46	inactive
PODXL	0.05	inactive
PODXL	0.18	inactive
PODXL	-0.12	inactive
GDF3	0.06	inactive
GDF3	0.77	inactive
GDF3	-0.11	inactive
GDF3	4	active
WNT2B	0.54	inactive
WNT2B	0.93	inactive
WNT2B	-0.57	inactive
WNT2B	0.37	inactive
PREX1	1.95	inactive
PREX1	2.11	inactive
PREX1	1.83	inactive
SLC13A1	0.28	inactive
SLC13A1	2.38	inactive
SLC13A1	0.49	inactive
SLC13A1	0.4	inactive
ANAPC10	-0.41	inactive
ANAPC10	0.55	inactive
ANAPC10	0.1	inactive
ANAPC10	0.45	inactive
LMLN	0.08	inactive
LMLN	7.85	active
LMLN	0.09	inactive
LMLN	0.49	inactive
TDP2	-0.4	inactive
TDP2	-0.74	inactive
TDP2	-0.39	inactive
TDP2	0.17	inactive
UTS2	-0.51	inactive
UTS2	-0.36	inactive
UTS2	-0.83	inactive
UTS2	-0.9	inactive
DEFB108B	0.91	inactive
DEFB108B	-0.54	inactive
DEFB108B	-0.24	inactive
DEFB108B	-0.02	inactive
RUVBL1	0.78	inactive
RUVBL1	3.71	active
RUVBL1	2.18	inactive
RUVBL1	1.48	inactive
SLC6A11	-0.53	inactive
SLC6A11	13.7	active
SLC6A11	-0.06	inactive
SLC6A11	1.22	inactive

7 entries from above, arranged by “TNF reporter robust z-score”, highest first:
gene	TNF reporter robust z-score	call
SLC13A1	2.38	inactive
PREX1	2.11	inactive
PREX1	1.95	inactive
PREX1	1.83	inactive
SLC13A1	0.49	inactive
SLC13A1	0.4	inactive
SLC13A1	0.28	inactive
